Assay results: patent publication US4600705A, “Gonadoliberin derivatives containing a β-aspartyl group, a process for the preparation thereof and pharmaceutical preparations containing them” (Richter Gedeon Veyteszeti Gyar R.T., priority 1983, dated 1986)
At least one peptide structure holds a part that was inferred or is arguable (an end, a ring closure or a residue). Square brackets hold non-standard residues; d marks the D form. Side chains are listed from the residue outwards. Peptide text beside a SMILES is read from it. * marks the point of attachment. pGlu = O=C1CC[C@@H](C(=O)O)N1; NHPh = c1ccc(N*)cc1

Test system: turkey-cocks
Assay: sperm and testosterone production of turkey-cocks
Assay type: in vivo
Conditions: compared with D-Phe6-LH-RH

## CC(C)C[C@H](NC(=O)C[C@H](NC(=O)[C@H](Cc1ccc(O)cc1)NC(=O)[C@H](CO)NC(=O)[C@H](Cc1c[nH]c2ccccc12)NC(=O)[C@H](Cc1c[nH]cn1)NC(=O)[C@@H]1CCC(=O)N1)C(=O)Nc1ccccc1)C(=O)N[C@@H](CCCNC(=N)N)C(=O)N1CCC[C@H]1C(=O)NCC(N)=O [(β-Asp-alpha-anilide)^6 -LH-RH] ([pGlu]HWSYD([Leu-Arg-Pro-Gly-NH2])-NHPh)
  sperm production: much better and longer than e.g. the D-Phe^6 -LH-RH
  testosterone production: much better and longer than e.g. the D-Phe^6 -LH-RH
